Results are given in words; binding and its absence hold for the method and conditions named. In cells and extracts the contact can be indirect. Some results given as binding are weak or reduced against the parent protein; the word gives no strength.
Biological target: MLH1 in human cell extracts (human (in human cell extracts)) (UniProt P40692)
Test: co-IP; co-immunoprecipitation from human cell extracts

Protein sequences, listed by entry. Tags and fused reporters are not part of them.
UniProt P40692: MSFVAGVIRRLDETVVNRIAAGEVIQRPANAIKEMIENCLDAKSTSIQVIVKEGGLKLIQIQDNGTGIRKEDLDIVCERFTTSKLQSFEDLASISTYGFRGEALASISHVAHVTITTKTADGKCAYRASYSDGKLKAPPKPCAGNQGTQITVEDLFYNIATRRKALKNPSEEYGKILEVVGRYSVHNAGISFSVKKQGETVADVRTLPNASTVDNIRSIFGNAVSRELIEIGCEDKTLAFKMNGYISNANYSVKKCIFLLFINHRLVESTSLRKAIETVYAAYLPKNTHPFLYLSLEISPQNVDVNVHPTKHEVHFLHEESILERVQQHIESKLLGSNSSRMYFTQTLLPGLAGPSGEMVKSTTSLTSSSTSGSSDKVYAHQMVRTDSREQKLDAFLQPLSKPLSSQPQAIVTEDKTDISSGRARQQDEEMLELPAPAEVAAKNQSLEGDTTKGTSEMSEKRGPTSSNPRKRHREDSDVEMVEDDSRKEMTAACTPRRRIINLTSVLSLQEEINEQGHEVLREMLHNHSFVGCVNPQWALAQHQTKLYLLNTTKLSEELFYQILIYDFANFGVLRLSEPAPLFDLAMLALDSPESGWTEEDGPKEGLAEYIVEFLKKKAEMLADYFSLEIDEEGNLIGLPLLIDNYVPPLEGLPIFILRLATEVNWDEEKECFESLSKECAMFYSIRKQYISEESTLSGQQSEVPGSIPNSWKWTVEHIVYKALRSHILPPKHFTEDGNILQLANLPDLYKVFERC
UniProt P01106: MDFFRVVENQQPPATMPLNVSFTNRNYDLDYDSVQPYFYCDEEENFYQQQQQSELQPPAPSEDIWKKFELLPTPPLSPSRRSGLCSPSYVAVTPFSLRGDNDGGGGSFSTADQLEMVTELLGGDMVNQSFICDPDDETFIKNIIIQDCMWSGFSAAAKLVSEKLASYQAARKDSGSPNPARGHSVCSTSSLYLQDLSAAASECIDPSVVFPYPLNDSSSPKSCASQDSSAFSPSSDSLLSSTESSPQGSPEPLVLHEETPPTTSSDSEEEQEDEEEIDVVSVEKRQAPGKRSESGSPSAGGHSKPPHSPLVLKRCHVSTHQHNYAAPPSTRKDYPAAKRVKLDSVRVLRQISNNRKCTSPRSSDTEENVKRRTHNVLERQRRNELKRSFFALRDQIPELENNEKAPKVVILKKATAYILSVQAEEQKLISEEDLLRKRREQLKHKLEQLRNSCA

- binding: binds
Substance: c-MYC in human cell extracts (from UniProt P01106 1-454)
